Source: PMC12040169 (PLOS Biology, 2025)
The other results are listed elsewhere or left out.

tested on: T1, CTL2-GFP (C. trachomatis L2/434/Bu, GFP-expressing); parameters: species or system HeLa; Intracellular C. trachomatis growth in HeLa cells, bulk GFP fluorescence relative to DMSO; conditions: bulk GFP, single well; 28.5 h, 10 µM; inhibitor
T1 construct: L2/434/Bu, GFP-expressing

Row | Compound | % of control remaining [%]
1 | CC1CCC2(CC1)NC(=O)N(Cc1coc(-c3ccccc3)n1)C2=O (centres unmarked) [CBK306196] | 102.381
2 | Cc1noc(C)c1C(=O)Nc1ccc(S(=O)(=O)NCCc2ccccc2)cc1 [CBK268183] | 97.4867
3 | Cc1ccccc1-c1ccccc1CC1(C(N)=O)CCN(C(=O)Cc2ccccc2)CC1 [CBK285724] | 98.9437
4 | COc1ccc(C(=O)Nc2nc(OC)cnc2-c2ccsc2)cc1 [CBK145293] | 160.881
5 | Cc1ccc2c(c1)CCCN2C(=O)c1cnc2c(c1)c(C)nn2C [CBK305670] | 108.25
6 | CC1(C)[C@H](Cc2cc(COc3ccccc3)on2)C[C@@H]1NS(C)(=O)=O [CBK289703] | 126.633
7 | Cc1cc(C)n(CC(=O)N2CCCCC2C(=O)O)n1 (centres unmarked) [CBK305266] | 81.878
8 | O=C(COc1ccc(F)cc1)NCc1ccc(-c2csnn2)cc1 [CBK149315] | 112.578
9 | Cc1ccc2nc(-c3ccc(N4C(Nc5nc(C)cc(C)n5)=NC(=O)CC4C(=O)O)cc3)sc2c1 (centres unmarked) [CBK266646] | 159.969
10 | O=C(O)C(=O)N1CCN(C(=O)c2cc3ccccc3[nH]2)CC1 [CBK288433] | 99.5157
11 | COc1cc(/C=C(\C#N)c2nn(-c3ccccc3)c(N)c2C#N)ccc1Oc1ccc(C(F)(F)F)cc1[N+](=O)[O-] [CBK262484] | 100
12 | Cc1cccc(-c2noc(C)c2C(=O)NCCn2ccc(C)n2)c1 [CBK282656] | 136.11
13 | CCN1CCN(CCNC(=O)Nc2ccccc2C)CC1 [CBK267842] | 95.5717
14 | CCNC(=O)c1cnc(-c2cccc(C(F)(F)F)c2)c(-c2cccc(CO)c2)c1 [CBK037557] | 181.972
15 | FC(F)(F)c1ccc(OCCNc2ccccc2)nc1 [CBK115828] | 94.9988
16 | CC(=O)c1ccc(-c2cnc(N)c(NCC(C)C)n2)s1 [CBK063764] | 216.925
17 | O=C(NCc1nc2ccccc2[nH]1)c1cnc(-c2ccc(Cl)cc2)c(-c2ccco2)c1 [CBK037555] | 75.0931
18 | Cc1ccc2c(c1)c(=O)cc(C(F)(F)F)n2C[C@H]1CCCN1 [CBK285303] | 62.5783
19 | O=C(O)CCC(=O)NC1CCN(Cc2ccccc2)CC1 [CBK287103] | 124.323
20 | COc1cc(OC)cc(C(=O)N(CCC#N)Cc2ccco2)c1 [CBK305133] | 137.302
21 | COc1ccc(C(=O)Nc2ccc3c(c2)nc2n3CCN(Cc3ccccc3)C2)cc1 [CBK266820] | 164.678
22 | O=C(c1ccc2c(c1)N(Cc1ccc(F)cc1)C(=O)CO2)c1cccs1 [CBK286410] | 116.156
23 | O=C(c1[nH]nc(O)c1Cc1c(Cl)cccc1Cl)N1CCOCC1 [CBK107228] | 101.693
24 | COc1cc(/C=N/NC(=O)CCn2c3ccc(Cl)cc3c3cc(Cl)ccc32)ccc1O [CBK262351] | 103.466
25 | CC(=O)N1CCN(C(=O)C[C@@H]2C[C@@H](C(C)C)[C@H](CNC(=O)c3cccnc3)C=C2C)CC1 [CBK289046] | 119.826
26 | Cn1ccc(C(=O)N2CCOC(c3nc(C(C)(C)C)n[nH]3)C2)cc1=O (centres unmarked) [CBK305201] | 104.29

Row | Compound | % of control remaining [%]
27 | CC(=O)NCC(=O)N1CC[C@@H]2NC(=O)CNC(=O)C3(CCCC[C@H]2C1)CCN(C(C)=O)CC3 [CBK292014] | 119.014
28 | COC(=O)C1CC(O)CN1S(=O)(=O)c1cccs1 (centres unmarked) [CBK086668] | 114.061
29 | CC(=O)N(C)c1ccc(NS(=O)(=O)c2cc(C)c(Cl)cc2C)cc1 [CBK045298] | 63.6927
30 | Clc1ccc(CN2CCC(Oc3nccnc3OCCN3CCOCC3)CC2)cc1 [CBK082918T] | 111.755
31 | Cc1cc(C(=O)O)c(NC(=O)c2cccc(Cl)c2)s1 [CBK126813] | 126.894
32 | O=C(NCc1ccc(F)cc1)c1cc(Br)cnc1N1CCOCC1 [CBK076246] | 166.844
33 | O=C(Nc1ccc2c(c1)OCCO2)N1CCCCC1CO (centres unmarked) [CBK156178] | 108.583
34 | Nc1ccc(Oc2ccc(-n3c(=O)c4cc5c(=O)n(-c6ccc(Oc7ccc(N)cc7)cc6)c(=O)c5cc4c3=O)cc2)cc1 [CBK261489] | 100
35 | Cc1ccc(C2C=C(c3ccccc3)Nc3nc(N4C(=O)CCC4=O)nn32)cc1 (centres unmarked) [CBK266197] | 168.068
36 | Cc1cccc2c(C(=O)OCC(=O)c3ccc([N+](=O)[O-])cc3)cc(-c3ccc(Cl)cc3)nc12 [CBK264088] | 112.018
37 | COc1ccc(Cl)cc1N1CCN(Cc2ccc3ccccc3c2)CC1 [CBK126414] | 103.026
38 | Cc1nc2cc(OCc3ccc(-c4nccnc4-c4nnn[nH]4)cc3)ccc2s1 [CBK050820] | 156.586
39 | CN1CCC(C(=O)N2CCN(c3ccccc3)CC2)CC1 [CBK200211] | 174.833
40 | CN(C)c1ccccc1-c1cc(NC2CCCCC2)ncn1 [CBK037041] | 157.521
41 | N#CCCN(C(=O)NCc1cccc(C(F)(F)F)c1)C1CCCCC1 [CBK156350] | 115.936
42 | CN(C)c1nc(NC2CC2)nc(Oc2ccc(=O)n(-c3ccccc3)n2)n1 [CBK270187] | 94.2113
43 | Cc1cccc(OCCN2C(=O)CC(Cc3cnn(C)c3)C2=O)c1 (centres unmarked) [CBK304081] | 113.708
44 | Cc1nnc(SCC(=O)Nc2nnc(C(C)C)s2)[nH]c1=O [CBK022107] | 139.884
45 | COc1cc2c(cc1-c1cn(CCc3n[nH]c(=O)[nH]3)nn1)CCC2 [CBK307112] | 122.477
46 | C[C@H](Nc1nccnc1-c1ccsc1)c1ccccc1 [CBK088716] | 135.243
47 | O=C(O)c1ccc(NS(=O)(=O)c2ccccc2)cc1O [CBK023181] | 121.916
48 | Cc1cc(C)nc(NCc2cnn(C)c2C)n1 [CBK306276] | 100.634
49 | Cc1ccc(N(CC(=O)Nc2ccccc2F)S(=O)(=O)c2ccc(F)cc2)cc1 [CBK263333] | 115.752
50 | CC(=O)N1CCN(C(=O)C2C(C(=O)O)C2(C)C)CC1 (centres unmarked) [CBK287021] | 117.607
51 | COc1cccc(C(=O)N2CCCC(c3cc4cnccc4[nH]3)C2)c1 (centres unmarked) [CBK285417] | 97.6855
52 | Cc1noc(C)c1C(=O)N1CCC2(CC1)CC(=O)c1ccc(OCc3ccccc3)c(C)c1O2 [CBK156506] | 79.6778

Structural class: those above with a cyano group
Row | Compound | % of control remaining [%]
11 | COc1cc(/C=C(\C#N)c2nn(-c3ccccc3)c(N)c2C#N)ccc1Oc1ccc(C(F)(F)F)cc1[N+](=O)[O-] [CBK262484] | 100
20 | COc1cc(OC)cc(C(=O)N(CCC#N)Cc2ccco2)c1 [CBK305133] | 137.302
41 | N#CCCN(C(=O)NCc1cccc(C(F)(F)F)c1)C1CCCCC1 [CBK156350] | 115.936

Further entries:

Row | Compound | % of control remaining [%]
53 | Cc1ccccc1C(NC(=O)C1CCN(C/C=C/c2ccccc2)CC1)c1ncccc1C (centres unmarked) [CBK147980] | 151.282
54 | CC(C)=NOc1ncccc1C#N [CBK007841] | 91.5015
55 | C=CCn1cc(CN2CCCC(O)(c3ccc(F)cc3)CC2)c(C)n1 (centres unmarked) [CBK285144] | 130.299
56 | O=C(Cn1ncc2ccccc2c1=O)NNC(=S)Nc1ccc2c(c1)OCO2 [CBK268751] | 129.745
57 | Cc1nccn1CC(C)CNc1ccc(C(=O)c2ccccc2)cc1[N+](=O)[O-] (centres unmarked) [CBK298336] | 150.274
58 | Cc1ccc2[nH]c(=O)c(CN(Cc3ccccc3)C(=O)NC3CCCCC3)cc2c1 [CBK068704] | 111.684
59 | NNC(=O)CCc1ccccc1O [CBK261214] | 100
60 | CN1CCC2(CC1)CC(NC(=O)C1CCCCC1)c1ccccc1O2 (centres unmarked) [CBK282635] | 112.993
61 | O=C(O)CN(c1ccc2c(c1)OCCO2)S(=O)(=O)c1ccccc1 [CBK268017] | 103.331
62 | Cc1nn(CC(=O)N2CCCC2)c(=O)c2cc3sccc3n12 [CBK284024] | 124.959
63 | Cc1cc([N+](=O)[O-])cc2c1NC(=O)C2(O)N1CCOCC1 (centres unmarked) [CBK262475] | 91.9061
64 | Cc1nnc(CCNC2CCN(c3ncnc4c(C)csc34)CC2)s1 [CBK307574] | 141.662
65 | OCCNc1cncc(-c2ccc3c(c2)OCO3)n1 [CBK065979] | 81.1347
66 | Nn1cnnc1SC1CCCCC1NS(=O)(=O)c1ccccc1 (centres unmarked) [CBK266361] | 193.617
67 | Cc1cc(-c2cc(C(=O)NN3CCN(C)CC3)c3cc(Cl)ccc3n2)c(C)s1 [CBK267738] | 102.18
68 | O=c1[nH]c(=O)c2cc(S(=O)(=O)Nc3cccc(CCc4ccccn4)c3)ccc2[nH]1 [CBK286389] | 121.623
69 | O=C1Nc2ccc(-c3ccc(Cl)cc3)cc2C(=O)N2CCN(C(=O)c3cccnc3)C[C@H]12 [CBK289590] | 127.396
70 | CC(=O)c1ccc(-c2ccc(/C=C\c3[nH]c(=O)[nH]c(=O)c3[N+](=O)[O-])o2)cc1 [CBK267038] | 160.836
71 | O=C(C1CC1)N1CC2CCCC(C1)C2(O)c1cccnc1F (centres unmarked) [CBK282889] | 113.469
72 | CC1=C(C)CC(C(=O)Nc2sc3c(c2C(=O)OC(C)C)CCCC3)C(C(=O)O)C1 (centres unmarked) [CBK265428] | 130.98
73 | CN(CC(=O)NCc1ccc2c(c1)OCO2)Cc1ccc(Br)s1 [CBK295185] | 153.12
74 | O=C(Nc1nccs1)c1cc(C2CCN(C(=O)CC3CCCCC3)C2)nc2ccccc12 (centres unmarked) [CBK285586] | 20.7646
75 | CC(=O)Oc1ccc(-c2cccc(C(=O)NCC(=O)O)c2)cc1 [CBK263828] | 100
76 | O=C1c2ccc(-c3nc4ccc(Cl)cc4c(=O)o3)cc2C(=O)N1Cc1cccnc1 [CBK268460] | 107.634
77 | COc1ccc(C(=O)NC2CCCNC2=O)s1 (centres unmarked) [CBK282938] | 142.343

By substructure: those above with bromine (2)
Row | Compound | % of control remaining [%]
32 | O=C(NCc1ccc(F)cc1)c1cc(Br)cnc1N1CCOCC1 [CBK076246] | 166.844
73 | CN(CC(=O)NCc1ccc2c(c1)OCO2)Cc1ccc(Br)s1 [CBK295185] | 153.12
